Results from the supplement of paper PMC10849652.
The list shows a part of the results.

Protein sequences, listed by entry. Tags and fused reporters are not part of them. Lines headed by an entry give the natural chain unless they say otherwise; changes in a name come on top.
UniProt Q9GZP4: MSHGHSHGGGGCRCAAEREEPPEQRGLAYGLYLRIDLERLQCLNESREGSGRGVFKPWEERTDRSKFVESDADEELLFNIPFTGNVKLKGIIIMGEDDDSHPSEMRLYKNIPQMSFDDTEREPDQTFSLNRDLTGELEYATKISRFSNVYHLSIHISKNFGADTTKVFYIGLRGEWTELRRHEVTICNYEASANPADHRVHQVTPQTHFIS
UniProt Q5JRX3: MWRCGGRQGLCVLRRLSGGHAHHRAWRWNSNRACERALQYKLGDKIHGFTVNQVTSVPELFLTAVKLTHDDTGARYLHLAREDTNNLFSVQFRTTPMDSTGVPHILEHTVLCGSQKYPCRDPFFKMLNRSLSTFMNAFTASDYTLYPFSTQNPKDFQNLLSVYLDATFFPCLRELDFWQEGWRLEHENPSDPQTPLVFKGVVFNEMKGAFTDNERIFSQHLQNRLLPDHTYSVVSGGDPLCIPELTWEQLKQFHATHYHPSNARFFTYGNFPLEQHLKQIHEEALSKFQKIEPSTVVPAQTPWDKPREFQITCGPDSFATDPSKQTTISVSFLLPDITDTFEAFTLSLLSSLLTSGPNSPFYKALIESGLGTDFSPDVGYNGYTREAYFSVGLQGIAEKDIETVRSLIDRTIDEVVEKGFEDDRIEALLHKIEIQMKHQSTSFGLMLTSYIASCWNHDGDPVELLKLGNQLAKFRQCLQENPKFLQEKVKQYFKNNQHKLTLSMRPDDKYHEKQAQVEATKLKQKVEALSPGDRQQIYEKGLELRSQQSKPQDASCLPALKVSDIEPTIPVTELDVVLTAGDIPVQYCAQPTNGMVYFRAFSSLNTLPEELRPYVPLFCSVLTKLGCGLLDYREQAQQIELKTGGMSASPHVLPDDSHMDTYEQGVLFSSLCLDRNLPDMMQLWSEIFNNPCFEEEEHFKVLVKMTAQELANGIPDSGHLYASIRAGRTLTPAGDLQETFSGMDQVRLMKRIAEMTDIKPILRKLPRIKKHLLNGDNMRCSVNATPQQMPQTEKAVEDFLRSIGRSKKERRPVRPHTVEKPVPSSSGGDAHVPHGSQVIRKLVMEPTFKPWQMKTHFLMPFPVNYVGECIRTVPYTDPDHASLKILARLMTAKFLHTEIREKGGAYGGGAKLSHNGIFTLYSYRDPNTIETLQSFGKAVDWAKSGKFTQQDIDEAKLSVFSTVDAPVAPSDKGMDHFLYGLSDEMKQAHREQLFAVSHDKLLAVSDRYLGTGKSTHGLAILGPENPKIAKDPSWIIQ
UniProt P53609, whole entry, looked up: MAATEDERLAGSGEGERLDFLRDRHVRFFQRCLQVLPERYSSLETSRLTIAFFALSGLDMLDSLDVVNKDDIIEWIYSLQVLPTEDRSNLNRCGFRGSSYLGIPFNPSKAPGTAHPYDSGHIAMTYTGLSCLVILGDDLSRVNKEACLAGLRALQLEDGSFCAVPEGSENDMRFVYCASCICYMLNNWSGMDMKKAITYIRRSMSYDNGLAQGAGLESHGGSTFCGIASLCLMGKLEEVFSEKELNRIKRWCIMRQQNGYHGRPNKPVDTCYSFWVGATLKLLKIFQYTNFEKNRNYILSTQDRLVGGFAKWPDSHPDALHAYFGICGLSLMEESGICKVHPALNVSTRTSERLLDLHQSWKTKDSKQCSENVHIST
UniProt Q6P4A8: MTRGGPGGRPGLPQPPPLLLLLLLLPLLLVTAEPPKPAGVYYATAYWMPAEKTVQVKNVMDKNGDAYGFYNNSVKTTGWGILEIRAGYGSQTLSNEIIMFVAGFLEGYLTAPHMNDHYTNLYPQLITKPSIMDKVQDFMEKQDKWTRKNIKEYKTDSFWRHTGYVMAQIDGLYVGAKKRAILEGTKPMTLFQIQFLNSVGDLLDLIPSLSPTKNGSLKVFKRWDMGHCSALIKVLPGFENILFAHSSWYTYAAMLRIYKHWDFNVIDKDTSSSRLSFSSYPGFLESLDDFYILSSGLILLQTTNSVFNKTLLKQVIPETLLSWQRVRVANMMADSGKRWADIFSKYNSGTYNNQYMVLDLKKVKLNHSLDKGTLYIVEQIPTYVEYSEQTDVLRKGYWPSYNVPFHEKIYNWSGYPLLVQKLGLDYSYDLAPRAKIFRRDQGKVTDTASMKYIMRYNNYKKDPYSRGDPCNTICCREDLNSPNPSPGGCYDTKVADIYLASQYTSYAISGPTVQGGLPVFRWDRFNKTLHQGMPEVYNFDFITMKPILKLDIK
UniProt Q9BUL5: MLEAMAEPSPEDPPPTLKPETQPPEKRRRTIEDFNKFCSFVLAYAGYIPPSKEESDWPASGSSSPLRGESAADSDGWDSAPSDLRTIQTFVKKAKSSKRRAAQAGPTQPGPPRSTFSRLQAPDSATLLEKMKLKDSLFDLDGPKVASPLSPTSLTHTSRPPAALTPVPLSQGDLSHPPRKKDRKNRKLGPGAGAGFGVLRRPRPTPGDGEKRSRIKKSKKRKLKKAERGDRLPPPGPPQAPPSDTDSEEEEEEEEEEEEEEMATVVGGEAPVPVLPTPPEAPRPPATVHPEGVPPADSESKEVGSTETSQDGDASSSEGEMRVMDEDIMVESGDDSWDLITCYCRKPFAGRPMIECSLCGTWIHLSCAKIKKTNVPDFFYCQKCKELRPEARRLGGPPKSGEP
UniProt Q5H8A4: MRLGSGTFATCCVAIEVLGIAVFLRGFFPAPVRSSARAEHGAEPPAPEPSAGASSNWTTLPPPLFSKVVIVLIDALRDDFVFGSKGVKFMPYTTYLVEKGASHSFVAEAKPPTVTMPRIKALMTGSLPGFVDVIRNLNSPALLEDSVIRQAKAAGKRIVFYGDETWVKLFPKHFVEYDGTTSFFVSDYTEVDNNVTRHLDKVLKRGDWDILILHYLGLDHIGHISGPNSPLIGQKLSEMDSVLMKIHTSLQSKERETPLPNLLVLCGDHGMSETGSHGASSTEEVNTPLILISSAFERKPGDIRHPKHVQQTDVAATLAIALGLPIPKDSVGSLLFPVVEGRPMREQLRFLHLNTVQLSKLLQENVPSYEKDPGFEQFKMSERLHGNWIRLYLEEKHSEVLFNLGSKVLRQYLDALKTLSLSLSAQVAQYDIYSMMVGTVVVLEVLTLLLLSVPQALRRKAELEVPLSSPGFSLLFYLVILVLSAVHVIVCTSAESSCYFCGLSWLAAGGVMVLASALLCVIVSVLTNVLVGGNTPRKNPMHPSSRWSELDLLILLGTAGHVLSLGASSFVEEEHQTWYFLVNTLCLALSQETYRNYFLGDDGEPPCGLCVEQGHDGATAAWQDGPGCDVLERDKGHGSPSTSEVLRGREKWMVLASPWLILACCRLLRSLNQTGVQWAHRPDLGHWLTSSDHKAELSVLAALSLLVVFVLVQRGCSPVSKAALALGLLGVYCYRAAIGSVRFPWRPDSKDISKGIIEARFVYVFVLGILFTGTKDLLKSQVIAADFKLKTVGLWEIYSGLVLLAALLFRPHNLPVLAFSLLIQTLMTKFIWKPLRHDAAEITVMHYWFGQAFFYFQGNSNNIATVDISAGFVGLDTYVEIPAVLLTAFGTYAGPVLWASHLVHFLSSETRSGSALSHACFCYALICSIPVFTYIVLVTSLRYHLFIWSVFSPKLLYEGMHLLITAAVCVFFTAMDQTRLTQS
UniProt P15735: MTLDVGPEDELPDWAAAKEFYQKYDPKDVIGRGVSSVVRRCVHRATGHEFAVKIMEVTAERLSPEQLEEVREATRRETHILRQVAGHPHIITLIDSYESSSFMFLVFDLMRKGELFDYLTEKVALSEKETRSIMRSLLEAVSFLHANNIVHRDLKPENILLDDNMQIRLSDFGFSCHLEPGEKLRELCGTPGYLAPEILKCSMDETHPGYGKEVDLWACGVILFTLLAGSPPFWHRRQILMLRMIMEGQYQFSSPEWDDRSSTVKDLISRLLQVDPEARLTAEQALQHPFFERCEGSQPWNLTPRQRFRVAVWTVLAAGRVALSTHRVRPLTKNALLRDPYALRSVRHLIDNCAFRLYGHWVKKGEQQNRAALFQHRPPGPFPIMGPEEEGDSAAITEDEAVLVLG
UniProt Q8IXK0: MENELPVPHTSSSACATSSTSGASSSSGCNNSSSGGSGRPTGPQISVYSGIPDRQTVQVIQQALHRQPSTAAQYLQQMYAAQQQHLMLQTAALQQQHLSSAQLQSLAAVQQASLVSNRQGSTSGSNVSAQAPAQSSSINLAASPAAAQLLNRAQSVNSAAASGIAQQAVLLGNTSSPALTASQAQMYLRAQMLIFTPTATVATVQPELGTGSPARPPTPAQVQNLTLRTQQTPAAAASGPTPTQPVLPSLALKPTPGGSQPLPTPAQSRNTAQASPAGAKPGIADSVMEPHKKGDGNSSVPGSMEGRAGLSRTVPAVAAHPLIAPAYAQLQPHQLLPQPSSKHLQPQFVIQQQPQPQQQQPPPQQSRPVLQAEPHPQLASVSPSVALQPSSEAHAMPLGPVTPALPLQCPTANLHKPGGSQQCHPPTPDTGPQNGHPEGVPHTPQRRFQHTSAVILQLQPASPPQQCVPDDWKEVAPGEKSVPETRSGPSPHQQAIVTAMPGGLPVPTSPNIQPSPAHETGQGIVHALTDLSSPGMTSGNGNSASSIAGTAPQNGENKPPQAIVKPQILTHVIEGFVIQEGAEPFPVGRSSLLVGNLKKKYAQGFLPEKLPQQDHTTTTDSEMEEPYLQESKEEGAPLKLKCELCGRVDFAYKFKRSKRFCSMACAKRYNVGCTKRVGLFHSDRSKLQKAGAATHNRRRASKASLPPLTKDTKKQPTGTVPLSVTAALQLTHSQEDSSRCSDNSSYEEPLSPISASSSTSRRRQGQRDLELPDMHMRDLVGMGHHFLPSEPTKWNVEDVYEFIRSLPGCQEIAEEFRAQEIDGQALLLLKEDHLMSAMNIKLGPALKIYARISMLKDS
UniProt P48736: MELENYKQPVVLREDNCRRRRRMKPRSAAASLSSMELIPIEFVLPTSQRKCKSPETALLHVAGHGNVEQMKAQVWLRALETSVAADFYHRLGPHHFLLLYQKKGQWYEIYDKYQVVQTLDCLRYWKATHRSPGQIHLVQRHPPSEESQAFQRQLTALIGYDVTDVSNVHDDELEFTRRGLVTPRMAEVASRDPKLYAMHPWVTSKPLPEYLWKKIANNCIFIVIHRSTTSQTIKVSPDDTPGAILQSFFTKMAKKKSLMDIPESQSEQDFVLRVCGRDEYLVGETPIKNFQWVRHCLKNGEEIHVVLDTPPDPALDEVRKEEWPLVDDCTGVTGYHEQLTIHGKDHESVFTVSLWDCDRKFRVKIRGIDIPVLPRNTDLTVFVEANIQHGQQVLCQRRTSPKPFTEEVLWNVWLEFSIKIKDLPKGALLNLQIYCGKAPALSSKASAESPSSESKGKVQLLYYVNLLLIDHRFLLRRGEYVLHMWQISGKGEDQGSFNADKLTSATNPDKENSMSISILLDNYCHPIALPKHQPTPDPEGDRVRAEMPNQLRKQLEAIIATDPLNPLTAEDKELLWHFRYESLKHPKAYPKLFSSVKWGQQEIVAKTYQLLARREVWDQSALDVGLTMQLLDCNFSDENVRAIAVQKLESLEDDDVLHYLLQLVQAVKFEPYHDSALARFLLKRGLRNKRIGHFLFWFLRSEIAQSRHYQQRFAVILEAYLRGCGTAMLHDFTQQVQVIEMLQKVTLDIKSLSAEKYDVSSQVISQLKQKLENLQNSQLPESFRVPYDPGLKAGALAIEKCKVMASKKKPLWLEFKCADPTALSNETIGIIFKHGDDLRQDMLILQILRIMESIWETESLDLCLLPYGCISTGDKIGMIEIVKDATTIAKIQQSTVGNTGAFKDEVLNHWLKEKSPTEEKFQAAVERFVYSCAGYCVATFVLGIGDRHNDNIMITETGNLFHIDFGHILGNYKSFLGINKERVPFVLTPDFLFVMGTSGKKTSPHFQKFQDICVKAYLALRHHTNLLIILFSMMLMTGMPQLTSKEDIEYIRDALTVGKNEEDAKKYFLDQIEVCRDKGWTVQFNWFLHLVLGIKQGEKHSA
UniProt O75925, whole entry, looked up: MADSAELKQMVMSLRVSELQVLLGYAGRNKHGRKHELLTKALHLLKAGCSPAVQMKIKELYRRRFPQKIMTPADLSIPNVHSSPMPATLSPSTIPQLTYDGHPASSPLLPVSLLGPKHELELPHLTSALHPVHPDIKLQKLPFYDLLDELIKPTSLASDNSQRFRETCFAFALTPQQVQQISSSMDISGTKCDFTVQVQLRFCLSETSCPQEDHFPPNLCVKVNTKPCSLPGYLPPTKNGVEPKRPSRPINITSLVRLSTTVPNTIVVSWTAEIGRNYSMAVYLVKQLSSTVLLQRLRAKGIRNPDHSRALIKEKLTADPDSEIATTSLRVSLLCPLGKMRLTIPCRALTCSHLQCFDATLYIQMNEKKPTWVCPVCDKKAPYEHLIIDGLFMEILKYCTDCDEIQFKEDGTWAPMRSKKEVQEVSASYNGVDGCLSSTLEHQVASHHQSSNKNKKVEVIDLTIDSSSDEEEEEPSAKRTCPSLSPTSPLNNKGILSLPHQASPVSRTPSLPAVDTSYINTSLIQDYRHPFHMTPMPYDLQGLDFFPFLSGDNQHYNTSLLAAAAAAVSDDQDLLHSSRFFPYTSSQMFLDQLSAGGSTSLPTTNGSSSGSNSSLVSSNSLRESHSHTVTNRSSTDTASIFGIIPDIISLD

Tests used:
Assay in all cases: log2 fold change, soluble protein after heating vs DMSO (PISA); higher = thermal stabilisation; K562 lysate, 10 uM; active = over 0.2 and 3.5 SD of the protein, either way, in both replicates (recomputed)
nilotinib = compound: Cc1cn(-c2cc(NC(=O)c3ccc(C)c(Nc4nccc(-c5cccnc5)n4)c3)cc(C(F)(F)F)c2)cn1 [nilotinib]
In short: (§1)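 K562 pellets were dounce-homogenised in PBS pH 7.4 with 1 mM MgCl2, and the crude extract at 1 mg/mL protein was treated with 10 μM compound for 30 min. Aliquots were heated for 3 min across 48°C-58°C, pooled, and brought to 0.5% NP-40 at 4°C; soluble protein was the supernatant after 21,000xg for 90 min. Soluble protein was quantified by TMTpro 16plex LC-MS/MS with channel sums equalised, and reported as log2 fold change in thermal stability against DMSO controls, with values from duplicates.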

[1] = compound: Cc1nc(Nc2n[nH]c3c2CN(C(=O)N[C@H](CN(C)C)c2ccccc2)C3(C)C)c2sccc2n1
In short: as §1

dasatinib = compound: Cc1nc(Nc2ncc(C(=O)Nc3c(C)cccc3Cl)s2)cc(N2CCN(CCO)CC2)n1 [dasatinib]
In short: as §1

[2] = compound: Cc1ncc(-c2ccnc(Nc3ccc(S(C)(=O)=O)cc3)n2)n1C(C)C
In short: as §1

[3] = compound: Cn1cc(-c2ccc3c(c2)CCN3C(=O)Cc2cccc(C(F)(F)F)c2)c2c(N)ncnc21
In short: as §1

quisinostat = compound: Cn1cc(CNCC2CCN(c3ncc(C(=O)NO)cn3)CC2)c2ccccc21 [quisinostat]
In short: as §1

tipifarnib = compound: Cn1cncc1[C@@](N)(c1ccc(Cl)cc1)c1ccc2c(c1)c(-c1cccc(Cl)c1)cc(=O)n2C [tipifarnib]
In short: as §1

[4] = compound: NC(=O)Nc1cc(-c2cccc(F)c2)sc1C(=O)N[C@H]1CCCNC1
In short: as §1

[5] = compound: NC1(c2ccc(-c3nc4ccn5c(=O)[nH]nc5c4cc3-c3ccccc3)cc2)CCC1
In short: as §1

[6] = compound: NC(=O)c1cnc(N[C@@H]2CCCC[C@@H]2N)nc1Nc1cccc(-n2nccn2)c1
In short: as §1

Measured: log2 fold change

PLEKHA2 (UniProt Q9HB19)
inactive: nilotinib -0.03 | [1] 0.06 | dasatinib 0.033 | [2] -0.022 | [3] -0.017 | quisinostat -0.194 | tipifarnib -0.021 | [4] 0.004 | [5] -0.04

PITHD1 (UniProt Q9GZP4)
inactive: nilotinib 0.021 | [1] 0.017 | dasatinib 0.016 | [2] 0.036 | [3] -0.044 | quisinostat -0.076 | tipifarnib 0.001 | [4] 0.017 | [6] -0.012 | [5] 0.001

PITRM1 isoform 2 (UniProt Q5JRX3)
inactive: nilotinib 0.014 | [1] -0.035 | dasatinib 0.011 | [2] -0.021 | [3] -0.002 | quisinostat 0.021 | tipifarnib 0.013 | [4] 0.005 | [6] 0 | [5] -0.008

PGGT1B (UniProt P53609)
inactive: nilotinib 0.01 | [1] -0.005 | dasatinib 0.005 | [2] -0.03 | [3] 0.048 | quisinostat 0.066 | tipifarnib 0.208 | [4] 0.018 | [6] -0.037 | [5] 0.047

PLBD1 (UniProt Q6P4A8)
inactive: nilotinib -0.042 | [1] 0 | dasatinib 0.041 | [2] -0.069 | [3] -0.015 | quisinostat -0.043 | tipifarnib -0.058 | [4] 0.019 | [6] -0.029 | [5] 0.004

PKLR (UniProt P30613)
inactive: nilotinib 0.001 | [1] -0.016 | dasatinib 0.006 | [2] -0.015 | [3] -0.034 | quisinostat 0.021 | tipifarnib 0.017 | [4] -0.015 | [6] -0.001 | [5] 0.022

PIK3CB (UniProt P42338)
active: [5] 0.44
inactive: nilotinib 0.015 | [1] 0.021 | dasatinib -0.072 | [2] 0.094 | [3] 0.055 | quisinostat -0.05 | tipifarnib -0.032 | [4] 0.053 | [6] 0.015

PLCG1 isoform 2 (UniProt P19174)
inactive: nilotinib -0.04 | [1] -0.016 | dasatinib -0.046 | [2] -0.01 | [3] 0.009 | quisinostat -0.024 | tipifarnib 0 | [4] 0.017 | [6] 0.034 | [5] -0.007

PHOSPHO2 (UniProt Q8TCD6)
inactive: nilotinib 0.003 | [1] -0.013 | dasatinib 0.024 | [2] 0.038 | [3] -0.033 | quisinostat 0.03 | tipifarnib 0.068 | [4] -0.036 | [6] -0.004 | [5] 0.013

PHLPP1 (UniProt O60346)
inactive: nilotinib 0.143 | [1] 0.131 | dasatinib -0.043 | [2] -0.287 | [3] -0.129 | quisinostat -0.118 | tipifarnib -0.162 | [4] 0.005 | [5] 0.018

PIM2 (UniProt Q9P1W9)
inactive: nilotinib 0.084 | [1] 0.15 | dasatinib 0.201 | [2] 0.077 | [3] -0.267 | tipifarnib 0.174

PHF23 (UniProt Q9BUL5)
inactive: nilotinib 0.033 | [1] 0.019 | dasatinib 0.026 | [2] -0.016 | [3] 0.042 | quisinostat -0.028 | tipifarnib 0.031 | [4] 0.019 | [6] -0.056 | [5] 0.038

PHKA2 (UniProt P46019)
active: [4] 0.302
inactive: nilotinib 0.005 | [1] 0.163 | dasatinib -0.05 | [2] 0.019 | [3] -0.028 | quisinostat -0.148 | tipifarnib 0.015 | [6] 0.001 | [5] -0.037

PLAU (UniProt P00749)
inactive: nilotinib -0.049 | [1] -0.036 | dasatinib 0.298 | [2] 0.091 | [3] -0.17 | tipifarnib -0.113 | [6] -0.21 | [5] 0.009

PIGG (UniProt Q5H8A4)
inactive: nilotinib -0.01 | [1] -0.004 | dasatinib 0.014 | [2] 0.006 | [3] -0.017 | quisinostat -0.061 | tipifarnib -0.018 | [4] 0.033 | [6] 0.049 | [5] 0

PIK3CD (UniProt O00329)
inactive: nilotinib 0.059 | [1] 0.006 | [2] 0.122 | [3] 0.151 | quisinostat -0.091 | tipifarnib -0.053 | [4] 0.02 | [6] 0.001 | [5] 0.127

PHKG2 (UniProt P15735)
active: [1] 0.598 | [4] 0.979
inactive: nilotinib -0.022 | dasatinib -0.03 | [2] 0.046 | [3] 0.037 | quisinostat -0.069 | tipifarnib 0.038 | [6] -0.042 | [5] -0.073

PIAS4 (UniProt Q8N2W9)
inactive: nilotinib -0.032 | [1] 0.096 | dasatinib 0.069 | [2] -0.015 | [3] -0.071 | quisinostat -0.06 | tipifarnib -0.087 | [4] -0.018 | [5] 0.14

Two records picked at random from the list so far, as already listed:
PLCG1 isoform 2 (UniProt P19174)
inactive: nilotinib -0.04 | [1] -0.016 | dasatinib -0.046 | [2] -0.01 | [3] 0.009 | quisinostat -0.024 | tipifarnib 0 | [4] 0.017 | [6] 0.034 | [5] -0.007

PIK3CD (UniProt O00329)
inactive: nilotinib 0.059 | [1] 0.006 | [2] 0.122 | [3] 0.151 | quisinostat -0.091 | tipifarnib -0.053 | [4] 0.02 | [6] 0.001 | [5] 0.127

Further entries follow.

PIK3CA (UniProt P42336)
inactive: nilotinib 0.082 | [1] 0.011 | [2] 0.02 | [3] -0.021 | quisinostat 0.038 | tipifarnib -0.034 | [4] 0.004 | [6] 0.073 | [5] 0.009

PITPNB isoform 3 (UniProt P48739)
inactive: nilotinib 0.012 | [1] 0.012 | dasatinib 0.053 | [2] -0.022 | [3] -0.019 | quisinostat 0.049 | tipifarnib 0.007 | [4] -0.026 | [6] -0.005 | [5] -0.004

PLEKHA8 (UniProt Q96JA3)
inactive: nilotinib -0.084 | [1] 0.047 | dasatinib -0.029 | [2] -0.13 | [3] -0.035 | tipifarnib 0.196

PHLDB1 (UniProt Q86UU1)
inactive: nilotinib -0.035 | [1] -0.012 | dasatinib 0.002 | [2] -0.006 | [3] -0.046 | quisinostat -0.243 | tipifarnib -0.003 | [4] 0.028 | [6] -0.036 | [5] 0.004

PLCG2 (UniProt P16885)
inactive: nilotinib -0.003 | [1] -0.035 | [2] 0.004 | quisinostat -0.064 | tipifarnib 0.05 | [4] -0.013 | [6] 0.041 | [5] 0.033

PKNOX1 (UniProt P55347)
inactive: nilotinib 0.102 | [1] -0.079 | dasatinib 0.046 | [2] -0.123 | [3] 0.014 | quisinostat -0.108 | tipifarnib -0.113 | [4] 0.007 | [6] 0.016 | [5] 0.049

PKN3 (UniProt Q6P5Z2)
inactive: nilotinib 0.018 | [1] -0.056 | dasatinib -0.079 | [2] 0.031 | [3] 0.031 | quisinostat 0.006 | tipifarnib 0.213 | [4] -0.097 | [5] 0.053

PHC2 isoform 5 (UniProt Q8IXK0)
inactive: nilotinib 0.095 | [1] 0.085 | [2] 0.461 | quisinostat 0.056 | tipifarnib -0.268 | [4] 0.029

PHKA1 (UniProt P46020)
inactive: nilotinib -0.059 | [1] 0.14 | dasatinib -0.138 | [2] -0.007 | [3] 0.029 | quisinostat -0.072 | tipifarnib -0.021 | [6] 0.091 | [5] -0.053
active: [4] 0.272

PIK3C2A (UniProt O00443)
inactive: nilotinib 0.091 | [1] -0.029 | dasatinib 0.004 | [2] -0.065 | [3] 0.022 | quisinostat -0.056 | tipifarnib -0.103 | [4] 0.077 | [6] 0.006 | [5] -0.028

PIAS2 (UniProt O75928)
inactive: nilotinib -0.019 | [1] -0.005 | dasatinib -0.097 | [2] 0.068 | [3] -0.026 | quisinostat 0.061 | tipifarnib -0.086 | [4] 0.004 | [5] 0.025

PIK3CG (UniProt P48736)
inactive: nilotinib 0.004 | [1] -0.022 | [2] 0.079 | [3] 0.097 | quisinostat -0.139 | tipifarnib 0.003 | [4] 0.013 | [5] -0.017

PIAS1 isoform 2 (UniProt O75925)
inactive: nilotinib -0.106 | [1] -0.103 | dasatinib 0.151 | [2] 0 | [3] -0.068 | quisinostat -0.023 | tipifarnib -0.183 | [4] -0.074 | [5] 0.06
